Results: patent CN110760483A
Results are given in words; binding and its absence hold for the method and conditions named. Some entries that bind do so weakly or less than the wild type. For some assays here: Tags and fused reporters may be left off the sequences shown.

How the values were obtained:
[1] = molecular target: T1, 真核表达的羊TNF-α蛋白 (Hela(pCMV-Myc-ShTNF-α)) (羊 (sheep)) (UniProt P23383); experiment: direct immunofluorescence on methanol-fixed transfected Hela cells, FITC-3C1 1:1000
T1 sequence (looked up): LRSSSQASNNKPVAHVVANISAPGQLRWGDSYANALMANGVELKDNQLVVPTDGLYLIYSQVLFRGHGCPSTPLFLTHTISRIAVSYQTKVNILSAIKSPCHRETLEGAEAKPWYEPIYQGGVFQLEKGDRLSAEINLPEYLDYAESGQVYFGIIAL

[2] = molecular target: T2, 真核表达的牛TNF-α蛋白 (Hela(pCMV-Myc-BoTNF-α)) (牛 (bovine)) (UniProt Q06599); experiment: as above
T2 sequence (looked up): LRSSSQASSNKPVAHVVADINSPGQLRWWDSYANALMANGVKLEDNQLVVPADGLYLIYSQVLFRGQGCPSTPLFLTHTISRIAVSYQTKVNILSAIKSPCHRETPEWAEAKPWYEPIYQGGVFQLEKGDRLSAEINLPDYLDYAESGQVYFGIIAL

[3] = molecular target: T3, ShTNF-α (英国Abcam公司, ab184579) (羊 (sheep)) (UniProt P23383); experiment: indirect ELISA, protein coated at 0.5μg/mL, 3C1 hybridoma supernatant
T3 sequence (looked up): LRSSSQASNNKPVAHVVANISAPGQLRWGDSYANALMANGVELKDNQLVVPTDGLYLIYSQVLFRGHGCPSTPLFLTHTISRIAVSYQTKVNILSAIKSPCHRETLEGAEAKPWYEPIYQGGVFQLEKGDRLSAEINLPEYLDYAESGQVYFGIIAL

[4] = molecular target: T4, rGST-ShTNF-α (pGEX-6p-1-ShTNF-α, E. coli BL21) (羊 (sheep)) (UniProt P23383); experiment: Western blot with HRP-3C1 1:1000
T4 sequence (looked up): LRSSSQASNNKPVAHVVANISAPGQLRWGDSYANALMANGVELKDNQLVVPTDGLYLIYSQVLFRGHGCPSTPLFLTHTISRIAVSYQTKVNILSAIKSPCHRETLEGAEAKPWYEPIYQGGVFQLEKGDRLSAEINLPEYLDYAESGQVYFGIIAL

[5] = molecular target: T5, rHis-ShTNF-α (pET-30a(+)-ShTNF-α, E. coli BL21(DE3)) (羊 (sheep)) (UniProt P23383); experiment: Western blot with HRP-3C1 1:1000
T5 sequence (looked up): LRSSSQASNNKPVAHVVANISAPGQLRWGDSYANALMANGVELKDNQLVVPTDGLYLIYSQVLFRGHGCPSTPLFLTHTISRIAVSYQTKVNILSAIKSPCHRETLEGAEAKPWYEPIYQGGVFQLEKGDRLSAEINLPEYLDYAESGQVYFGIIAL

Measured: binding

B1: 单克隆抗体3C1 (具牛、羊交叉反应的抗TNF-α单克隆抗体, 杂交瘤 CCTCC NO:C2019129) (antibody, V domains shown)
VH: QVQLKQSGPGLVQPSQSLSITCTVSGFSLTNFSVHWVRQPPGKGLEWLGVMWSGGSTDYNAAFISRLSIIKDNSKSQVFFKMNGLQADDTAIYYCARSGPYYYSLDYWGQGTSVTVSS
VL: DIQMTQSPASLSASVGETVTITCRASENIYIYLAWYQQKQGKSPQLLVYNAKTLAEGVPSRFSGSGSGTQFSLNINSLQPEDFGSYYCQHHYGTPWTFGGGTKLEIK
binds: all assays above
